Assay: Serum T3, free T3 and T4 levels in hypothyroid (thyroidectomized) rats after T3 infusion or bolus injection (radioimmunoassay)
Type: in vivo, rat
From the text: FIG. 2. […] Three rats per each group.
Methods and Materials—Animal Studies. […] Results are expressed as means ±SE.

Which T4 (T3 infusion 0.25 μg/d, 3 days) does the source give for `N[C@@H](Cc1cc(I)c(Oc2ccc(O)c(I)c2)c(I)c1)C(=O)O` [T3, triiodothyronine] here?
The T4 was 1.2 ± 0.2 µg/dL.

And the T4 (T3 infusion 0.8 μg/d, 3 days)?
The T4 was 1.2 ± 0.2 µg/dL.

What about the T4 (T3 infusion 1.0 μg/d, 1 week) of the same compound?
The T4 was 1.2 ± 0.2 µg/dL.

What about the T4 (T3 infusion 7.0 μg/d, 1 week) of the same compound?
Its T4 is 0.45 ± 0.1 µg/dL.

Source: patent publication US20050176829A1, “Methods for treating hypothyroidism” (priority 2003, published 2005)
